Reference: US20250109127A1, “METHODS OF USE OF PHENOXYPROPYLAMINE COMPOUNDS TO TREAT DEPRESSION” (Minerva Neurosciences, Inc., priority 2013, published 2025)
For at least one compound, name, drawing or mass did not settle the structure.

Legend:
Type in all cases: in vivo
[1] = system: 5-HT release in the rat prefrontal cortex; assay: Microdialysis: 5-HT release in prefrontal cortex after I.P. administration; details: citalopram 10 mg/kg IP; from 6 h to 7 h
Description: (§1) The aim of the study was to evaluate, using microdialysis, the effects of an intraperitoneal (I.P.) administration in rats of three different doses of SON-117 on dopamine and its metabolites, serotonin and its metabolite (5-HIAA), and norepinephrine levels in prefrontal cortex.
(§2) Thirty-two adult male Wistar rats were used for the whole study (4 groups of eight animals planned for the study, Table 1).
(§3) Surgery was performed on rats weighing about 300 g at the beginning of the experiments. Rats were anaesthetized with Ketamine (50 mg/kg) & Xylazine (15 mg/kg) by intramuscular administration. The animals were placed in a stereotaxic apparatus in the flat-skull position at a constant setting of −3.3 mm between ear bars and the incisor bar. The animals were treated with a local anesthesic (xylocaine 1%, Astra Zeneca) and an analgesic (Temgesic, from Schering Plough, 0.05 mg/kg, s.c.). A rostrocaudal midline incision was made with a lancet to expose the dorsal skull surface. The “stereotaxic zero” was defined by the Bregma in accordance with Paxinos and Watson's atlas (1986). […]
Catecholamine assay: Concentrations of dopamine, DOPAC, HVA, 5-HIAA, 5-HT, and norepinephrin were determined for each sample by HPLC coupled with electrochemical detection. […]

[2] = system: DOPAC release in the rat prefrontal cortex; assay: Microdialysis: DOPAC release in prefrontal cortex after I.P. administration; details: citalopram 10 mg/kg I.P.
Description: as §1, §2, §3
(§4) Catecholamine assay: Concentrations of dopamine, DOPAC, HVA, 5-HIAA, 5-HT, and norepinephrin were determined for each sample by HPLC coupled with electrochemical detection.

[3] = system: HVA release in the rat prefrontal cortex; assay: Microdialysis: HVA release in prefrontal cortex after I.P. administration; details: citalopram 10 mg/kg
Description: as §1, §2, §3, §4

[4] = system: 5-HIAA release in the rat prefrontal cortex; assay: Microdialysis: 5-HIAA release in prefrontal cortex after I.P. administration; details: citalopram 10 mg/kg IP; from 2 h to 7 h
Description: as §1, §2, §3, §4

SMILES: CN(C)CCCC1(c2ccc(F)cc2)OCc2cc(C#N)ccc21 (stereo not shown) [Citalopram, citalopram, reference compound]
- 5-HT levels, later change [1]: significant slight decrease
- DOPAC levels after administration vs before [2]: no statistically significant differences
- HVA levels after administration vs before [3]: no statistically significant differences
- 5-HIAA concentration in prefrontal cortex, later change [4]: significant and stable decrease
